## Library screen at single concentrations

By UniProt entry, the sequences of proteins in these tests, tags left out. Residues count along the entry.
UniProt P9WNZ1, whole entry: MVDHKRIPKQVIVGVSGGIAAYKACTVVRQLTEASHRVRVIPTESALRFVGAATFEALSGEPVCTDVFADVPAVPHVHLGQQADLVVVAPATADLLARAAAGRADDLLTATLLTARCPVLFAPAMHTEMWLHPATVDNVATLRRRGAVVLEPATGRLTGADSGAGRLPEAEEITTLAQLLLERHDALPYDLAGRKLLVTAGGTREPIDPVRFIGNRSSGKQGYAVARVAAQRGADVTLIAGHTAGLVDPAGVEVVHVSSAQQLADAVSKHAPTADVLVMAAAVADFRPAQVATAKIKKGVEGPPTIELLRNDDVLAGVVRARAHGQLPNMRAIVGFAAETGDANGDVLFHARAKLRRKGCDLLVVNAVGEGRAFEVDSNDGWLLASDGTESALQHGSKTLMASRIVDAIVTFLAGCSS
UniProt I6X8D2, whole entry: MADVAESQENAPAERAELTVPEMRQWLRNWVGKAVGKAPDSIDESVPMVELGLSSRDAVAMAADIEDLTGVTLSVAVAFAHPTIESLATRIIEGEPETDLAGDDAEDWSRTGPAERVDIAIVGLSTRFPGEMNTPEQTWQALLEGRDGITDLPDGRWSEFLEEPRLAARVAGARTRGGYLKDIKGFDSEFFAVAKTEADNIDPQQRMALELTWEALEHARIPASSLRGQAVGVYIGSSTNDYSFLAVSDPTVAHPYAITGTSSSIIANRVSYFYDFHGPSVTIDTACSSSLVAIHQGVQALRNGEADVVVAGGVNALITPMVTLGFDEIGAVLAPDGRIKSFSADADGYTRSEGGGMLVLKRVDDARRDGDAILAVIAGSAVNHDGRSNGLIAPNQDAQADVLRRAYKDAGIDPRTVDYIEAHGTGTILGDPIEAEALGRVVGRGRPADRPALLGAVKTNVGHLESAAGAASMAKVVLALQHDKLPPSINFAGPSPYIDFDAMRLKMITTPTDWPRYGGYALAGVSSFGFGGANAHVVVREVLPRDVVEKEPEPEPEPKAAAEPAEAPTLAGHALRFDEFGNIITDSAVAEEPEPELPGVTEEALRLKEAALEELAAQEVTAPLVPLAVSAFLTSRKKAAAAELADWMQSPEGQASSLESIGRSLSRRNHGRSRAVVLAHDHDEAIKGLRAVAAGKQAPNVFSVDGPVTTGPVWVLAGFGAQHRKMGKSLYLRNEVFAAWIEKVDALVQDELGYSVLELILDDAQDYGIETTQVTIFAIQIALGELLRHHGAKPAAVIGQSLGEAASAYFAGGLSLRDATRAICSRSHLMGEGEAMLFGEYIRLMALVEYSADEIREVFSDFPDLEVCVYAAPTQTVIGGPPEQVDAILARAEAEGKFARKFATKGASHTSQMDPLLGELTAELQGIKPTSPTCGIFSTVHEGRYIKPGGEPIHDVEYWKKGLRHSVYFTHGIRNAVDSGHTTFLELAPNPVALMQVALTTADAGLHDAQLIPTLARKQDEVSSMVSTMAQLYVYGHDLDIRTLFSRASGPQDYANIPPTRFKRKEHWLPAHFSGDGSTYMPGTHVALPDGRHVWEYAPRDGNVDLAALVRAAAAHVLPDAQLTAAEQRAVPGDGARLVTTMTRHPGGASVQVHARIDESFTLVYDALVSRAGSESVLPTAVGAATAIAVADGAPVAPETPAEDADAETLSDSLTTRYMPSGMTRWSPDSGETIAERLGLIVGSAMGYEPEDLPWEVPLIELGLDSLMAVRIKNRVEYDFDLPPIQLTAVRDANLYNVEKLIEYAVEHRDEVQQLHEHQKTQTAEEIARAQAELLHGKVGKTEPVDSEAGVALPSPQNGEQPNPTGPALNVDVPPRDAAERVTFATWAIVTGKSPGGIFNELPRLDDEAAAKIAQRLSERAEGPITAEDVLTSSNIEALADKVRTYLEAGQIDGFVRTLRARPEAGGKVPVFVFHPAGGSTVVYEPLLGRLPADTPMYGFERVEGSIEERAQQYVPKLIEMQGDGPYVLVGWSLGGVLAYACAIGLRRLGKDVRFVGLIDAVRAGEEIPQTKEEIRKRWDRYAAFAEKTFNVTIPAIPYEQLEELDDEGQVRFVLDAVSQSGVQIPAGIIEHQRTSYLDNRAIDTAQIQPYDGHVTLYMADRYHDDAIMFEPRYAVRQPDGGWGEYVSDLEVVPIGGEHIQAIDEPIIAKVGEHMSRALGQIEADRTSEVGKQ
UniProt P9WPC5, whole entry: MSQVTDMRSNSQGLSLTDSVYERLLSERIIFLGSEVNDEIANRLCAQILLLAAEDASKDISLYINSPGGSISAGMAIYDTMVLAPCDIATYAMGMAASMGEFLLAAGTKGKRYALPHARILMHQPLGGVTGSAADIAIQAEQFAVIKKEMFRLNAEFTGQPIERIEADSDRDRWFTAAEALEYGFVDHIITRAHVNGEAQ
UniProt P9WPC3, whole entry partner: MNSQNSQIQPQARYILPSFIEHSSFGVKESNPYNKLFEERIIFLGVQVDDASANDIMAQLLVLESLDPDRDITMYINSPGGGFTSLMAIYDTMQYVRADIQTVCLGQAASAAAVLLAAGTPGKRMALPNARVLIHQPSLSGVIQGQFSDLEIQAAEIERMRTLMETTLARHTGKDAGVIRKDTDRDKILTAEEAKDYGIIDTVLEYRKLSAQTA
UniProt A4I591, 1-473: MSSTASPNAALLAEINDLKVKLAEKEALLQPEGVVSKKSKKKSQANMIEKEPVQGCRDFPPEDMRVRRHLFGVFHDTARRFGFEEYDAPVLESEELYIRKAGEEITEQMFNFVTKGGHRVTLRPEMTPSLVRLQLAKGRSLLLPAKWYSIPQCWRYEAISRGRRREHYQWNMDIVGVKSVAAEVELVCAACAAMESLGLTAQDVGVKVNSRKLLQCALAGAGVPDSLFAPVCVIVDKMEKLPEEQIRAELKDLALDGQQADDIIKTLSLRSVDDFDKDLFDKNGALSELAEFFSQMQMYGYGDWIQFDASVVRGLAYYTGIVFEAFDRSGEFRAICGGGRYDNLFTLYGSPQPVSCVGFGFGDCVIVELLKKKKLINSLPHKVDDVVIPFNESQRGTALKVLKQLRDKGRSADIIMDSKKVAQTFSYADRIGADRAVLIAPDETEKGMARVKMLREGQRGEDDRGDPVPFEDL
UniProt P9WFT3, whole entry: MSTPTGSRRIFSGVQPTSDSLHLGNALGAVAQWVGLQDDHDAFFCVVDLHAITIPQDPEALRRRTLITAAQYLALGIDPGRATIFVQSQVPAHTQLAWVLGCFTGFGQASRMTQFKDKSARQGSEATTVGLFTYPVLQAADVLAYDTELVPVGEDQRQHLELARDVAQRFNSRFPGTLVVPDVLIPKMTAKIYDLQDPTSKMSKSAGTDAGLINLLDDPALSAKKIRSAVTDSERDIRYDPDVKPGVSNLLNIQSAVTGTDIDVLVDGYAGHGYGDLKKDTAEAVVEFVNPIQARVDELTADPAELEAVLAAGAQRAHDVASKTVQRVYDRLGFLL

The values are deposited in ChEMBL (CHEMBL3988442, “University of Dundee, Small-Polar-MMV Screening Library” (2021)).

CoaBC: 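Enzyme assay of CoaBC with a phosphate dye (Biomol Green) read at 650 nm. Target: Coenzyme A biosynthesis protein CoaBC, Mycobacterium tuberculosis (UniProt P9WNZ1). Tested at 30 µM. Direction is inferred from only a few compounds that gave an IC50; most scored high, so higher reads as stronger inhibition. Most strong results did not repeat in a second test. About 67,000 compounds were tested under these conditions; 0.06% (about 40) showed 50% or more at least once.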
Pks13 thioesterase: 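Polyketide synthase Pks13, Mycobacterium tuberculosis (UniProt I6X8D2). Enzyme assay of the thioesterase domain of polyketide synthase 13; the read-out is not stated. Compounds at 30 µM. Higher reads as stronger inhibition (inferred from which compounds were picked for retests). About 67,000 compounds were tested under these conditions; 0.46% (about 300) showed 50% or more at least once.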
ClpP1P2: 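ClpP1P2, Mycobacterium tuberculosis (UniProt P9WPC5 and UniProt P9WPC3). Protease assay of ClpP1P2, read by the AMC dye that it sets free. Concentration: 50 µM. Higher reads as stronger inhibition, judged from the few compounds that gave an IC50. Most other retested compounds had strongly negative values. About 69,000 compounds were tested under these conditions; 0.015% (about 10) showed 50% or more at least once.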
Toxoplasma: 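Assay of Toxoplasma gondii numbers, read through their beta-galactosidase reporter with a colour substrate. Concentration: 10 µM. Higher reads as fewer parasites (inferred from which compounds were picked for retests). Of about 67,000 compounds tested this way, about 260 (0.38%) reached 50% or more in at least one test.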
LiHisRS: 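Histidine-tRNA ligase, Leishmania infantum (UniProt A4I591). Enzyme assay of histidyl-tRNA synthetase; the read-out is not stated. Tested at 30 µM. The record gives no direction; compounds that gave an IC50 in retests scored well above the rest, so higher reads as stronger inhibition. The assay is labelled LdHisRS but filed under L. infantum. About 69,000 compounds were tested under these conditions; 0.6% (about 410) showed 50% or more at least once.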
MtTrpRS: 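Enzyme assay of tryptophanyl-tRNA synthetase; the read-out is not stated. Target: Tryptophan-tRNA ligase, Mycobacterium tuberculosis (UniProt P9WFT3). Compounds at 10 µM. Higher most likely means stronger inhibition; the record gives no direction and few retests gave an IC50. About 65,000 compounds were tested under these conditions; 0.098% (about 64) showed 50% or more at least once.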

Results are given as percent effect.
The record does not define 0% and 100%; most values in the screen are far below 50% and negative numbers occur (in some assays of this library far below -100).
The compounds are a random part of those screened.
A dash means the value is not listed here; it may have been measured.

structure	CoaBC	Pks13 thioesterase	ClpP1P2	Toxoplasma	LiHisRS	MtTrpRS
[H][C@@]12CCN(C(=O)C(C)C)CC[C@]1(C(=O)Nc1ccccc1)CCN2C	-	-	-	-18.9	-	-
Cc1nc(CN2CCc3cc(C(=O)O)c(N(C)C)nc3CC2)cs1	-1.11	-9.477	-15.91	-	19.44	-3.989
COc1cc(F)ccc1-c1cc(CO)ccn1	3.44	-1.021	-7.551	24.11	11.9	-0.3734
O=C(Nc1cccc(N2CCN(CC3CC3)CC2)c1)C1CCOC1 (centres undefined)	2.959	12.81	2.386	-6.078	27.27	-0.4617
O=C(c1cscn1)N1C[C@H]2CCCC(OCc3cccnc3)[C@H]2C1 (some centres undefined)	6.218	-17.91	-1.766	-	16.98	3.882
O=C1CC[C@@H]2[C@@H](CCN2S(=O)(=O)C2CC2)N1CC1CC1	-0.7426	-20.38	11.44	-	2.703	-
O=C(C[S+]([O-])Cc1ccccc1F)N1CCc2sccc2C1 (centres undefined)	11	-22.57	-1.962	3.937	23.53	-0.2973
Cc1nnc(NCc2ccc(N3CCC(CO)CC3)cc2)c(C#N)c1C	13.18	-8.396	4.628	18.01	19.18	-2.082
CCN(C(=O)c1ccc(-n2ncc(C#N)c2N)cc1)C1CCCC1	-1.845	0.4324	1.108	4.672	15.62	2.568
CCOCCCNC(=O)Cc1cccs1	0.3681	-0.9138	-5.669	0.8758	22.68	-
CCNC(=O)NC(C)(C)C(=O)NCCc1csc2ccccc12	1.202	-13.79	-13.43	0.7115	10.42	0.1142
Brc1ccc(NCCCOC2CCOCC2)nc1	-16.32	11.48	-8.606	-3.697	5.479	-1.56
O=C(O)C(F)(F)F.[H][C@]12CCN(S(=O)(=O)c3ccc(F)cc3)C[C@@]1([H])OCCN(C)C2	-	-	-	-20.28	-	-
COCCN(C)C(=O)c1ccc(OC)cc1O	1.935	-11.46	-13.33	-4.295	5.714	-1.069
CNC(=O)c1cccc(NC(=O)CN2CCN(S(C)(=O)=O)CC2)c1	11.89	2.677	3.955	-2.18	20.75	-1.174
Cc1oc(-c2ccc(F)cc2)nc1CN1CCOCS1(=O)=O	13.73	-33.8	-8.437	8.451	15.79	-5.678
COCCS(=O)(=O)NC(C)c1cccc(-n2cccn2)c1 (centres undefined)	8.618	-	-5.429	-4.104	12.61	10.08
CCN(CC)C1COc2c(cc(Br)c(C)c2C)C1=O (centres undefined)	0.1227	16.87	-9.086	-12.39	4.124	-
CCc1nc(C2CCCN2C(=O)c2ccc3c(c2)[nH]c(=O)n3C)no1 (centres undefined)	1.305	-13.33	-19.35	5.787	0	-3.516
CCN1CCN(C2CCN(C(C(N)=O)c3ccccc3)CC2)C1=O (centres undefined)	2.532	12.14	-7.633	0.1181	1.299	-0.5452
Cn1cc(CCNC(=O)NC2CCN(Cc3ccccn3)CC2)cn1	7.045	-	-5.526	-2.81	10.71	19.34
CSCc1noc(CNC(=O)[C@H]2CNC[C@@H](C(=O)N3CCCC3)C2)n1	-4.133	-10.12	-1.634	3.419	14.29	4.498
CC(C)CCN1C2(CCN(C(=O)CN(C)C)C2)c2ccccc2S1(=O)=O.O=C(O)C(F)(F)F (centres undefined)	-	-	-	2.699	-	-
CC(NCc1cnc(N2CCN(C)CC2)nc1)c1ccc(F)cc1 (centres undefined)	-0.6369	-9.81	5.439	1.606	-8.29	-3.579
CN(C)S(=O)(=O)N1CCC(c2ccnc(Nc3ccccn3)n2)C1 (centres undefined)	1.214	6.645	-14.45	5.499	14.29	-1.198
CCc1cc(CNC(=O)N2CCN(c3nc(C)c(C)s3)CC2)on1	2.792	-4.928	-7.242	26.71	12.94	1.097
O=C(CCc1nc2cc(Br)cnc2[nH]1)NCCN1CCOCC1	2.025	10.46	-14.15	4.221	10.53	-0.7498
COCC1CN(CCc2ccc(OC)c(OC)c2)Cc2c1cnn2C (centres undefined)	2.104	-2.149	-3.902	0.9125	5.941	-
c1ccc(-c2nnn3c2COC(CNCC2CCOCC2)C3)cc1 (centres undefined)	-6.736	-37.43	6.613	-2.829	15.33	-1.762
O=C(c1ccoc1)N1CCc2c(COCC3CC3)cncc2C1	-0.2538	-6.704	20.6	-20.12	17.65	4.033
Cc1ccc(CN2CCNC(=O)C2CC(=O)NCc2n[nH]c(C)n2)cc1 (centres undefined)	7.158	-8.14	-4.159	5.036	6.25	0.5623
COc1cccc(Cn2[nH]c(C)c3c(NC(=O)C(C)OC)nnc2-3)c1 (centres undefined)	-11.72	-6.866	-7.608	-4.374	-23.6	-1.537
COc1cc(/C=C/c2ncc(C(=O)O)s2)cc(Cl)c1OC	5.59	16.64	-20.93	3.907	-3.509	17.46
CCN(CCn1cccn1)Cc1nc(-c2ccc(F)cc2)oc1C	1.775	-19.86	-7.793	-20.05	-3.03	-2.862
CC(C)C(=O)Nc1ccc(Sc2nncn2C)c(Cl)c1	10.77	-25.32	1.014	5.967	22.86	-0.854
NC(=O)C1CCCN(C(=O)c2ccc(-n3ccnc3)cc2)C1 (centres undefined)	0.6098	-3.391	-8.136	6.659	0	-3.576
[H][C@@]12C[C@H](c3noc(C)n3)O[C@]1([H])CCN(C(=O)c1ccc(C)o1)C2	-	-	-	-1.627	-	-
O[C@]12CC[C@H](CC1)N(Cc1ccc(F)cc1)C2CN1CCOCC1 (some centres undefined)	2.906	11.12	-6.206	-	16.33	-

Some entries from above, unchanged:

COc1cc(F)ccc1-c1cc(CO)ccn1 gave CoaBC: 3.44%; Pks13 thioesterase: -1.021%; ClpP1P2: -7.551%; Toxoplasma: 24.11%; LiHisRS: 11.9%; MtTrpRS: -0.3734%.
CC(NCc1cnc(N2CCN(C)CC2)nc1)c1ccc(F)cc1 (centres undefined) gave CoaBC: -0.6369%; Pks13 thioesterase: -9.81%; ClpP1P2: 5.439%; Toxoplasma: 1.606%; LiHisRS: -8.29%; MtTrpRS: -3.579%.
O=C1CC[C@@H]2[C@@H](CCN2S(=O)(=O)C2CC2)N1CC1CC1 gave CoaBC: -0.7426%; Pks13 thioesterase: -20.38%; ClpP1P2: 11.44%; LiHisRS: 2.703%.
CCOCCCNC(=O)Cc1cccs1 gave CoaBC: 0.3681%; Pks13 thioesterase: -0.9138%; ClpP1P2: -5.669%; Toxoplasma: 0.8758%; LiHisRS: 22.68%.